Experimental data as given in article PMC3721995.
No constants are given. Whether binding was seen depends on the method and setting. Binding calls can cover weak binding; strength is not graded here.

Molecular target: recombinant HIV-1 gp120BaL protein (HIV-1 (isolate BaL))
Assay: ELISA; competition ELISA; biotinylated P19 (40 ug/ml) mixed with increasing concentrations of non-biotinylated P19 and added to a gp120-coated plate (8 ug/ml), 37°C, 60 min; P1 as control at 640 ug/ml; both purified

B1: SRCR1 peptide P19, biotinylated (peptide)
peptide: GWLSHNCGHGEDAGV
modifications: biotin on the N-terminus
binding: binds
